Reference: patent publication US10556926B2, “Synthetic artificial peptides with antimicrobial effect” (priority 2014, dated 2020)
No end group written: not given here.

Experiments:
E. coli DH5α = conditions: LD50/MIC; LD50 of 128 used where LD50 above measured range; parentheses: MTC established but no LD50
Description: (§1) The minimum inhibitory concentration (MIC) of the peptides was carried out by way of example against gram(−) E. coli DH5α (and gram(+) Staphylococcus xylosus (both Deutsche Sammlung von Mikroorganismen and Zellkulturen, DSMZ) in a standardized microdilution method according to the general guidelines of the CLSI (Clinical and Laboratory Standards Institute 2006) and EUCAST (European Committee for Antimicrobial Susceptibility Testing of the European Society of Clinical Microbiology and Infectious Diseases 2003) with slight adaptations to the investigation of cationic antimicrobial peptides (Wiegand et al. 2008). The bacteria cells were cultivated in Mueller-Hinton-Boullion (MHB) to an optical density of 0.4 to 0.6 at 600 nm wavelength, corresponding to about 4·10^8 bacteria per ml. Then, the bacteria cultures were diluted to a bacteria concentration of about 1·10^5 bacteria per ml in sterile MHB. Using the peptides, series of 2-fold dilutions starting at 128 μM to the smallest dilution of 0.5 μM in MHB were prepared. The peptide dilutions were mixed with the dilute bacteria cultures in a […] in the chambers of a 96-well polypropylene microtiter plate (Starlab, Hamburg, Germany), so that the peptides were present in an end concentration between 64 μM and 0.25 μM at a bacteria concentration of 5·10^4 bacteria/ml. Sterile MHB served as negative control, and the positive control used as the corresponding bacteria concentration in MHB without the addition of peptide. The microtiter plates were incubated for 18 hours at 37° C. with shaking at 120 rpm in a climatically controlled chamber. After the incubation, the bacteria concentration was determined by renewed absorption measurement at a wavelength of 600 nm.

Staphylococcus xylosus = conditions: LD50/MIC; LD50 of 128 used where LD50 above measured range; parentheses: MTC established but no LD50
Description: as §1

Substance | Therapeutic ratio E. coli (E. coli DH5α) | Therapeutic ratio S. xylosus (Staphylococcus xylosus)
GRFKRFRKKFKKLFKKLSPVIPLLHLG-OH [BMAP-27] | 1.80 | 0.9
ILPWKWPWWPWRR [Indolicidin] | 32 | 4
KILILIKRK-OH [N4] | 1.8 | 
KRKRKILILIKRK-OH [N1] | 4.5 | 
MPRRRRSSSRPVRRRRRPRVSRRRRRRGGRRR (Protamine) | (16) | 
